Laboratory results: PubChem BioAssay AID1259308 (NCATS, 2017)

Test: 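Genes whose loss raises luciferase production in HEK293 cells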 (primary screen)
Cells: human HEK293 embryonic kidney cells stably expressing firefly luciferase (HEK-CMV-Luc2-Hygro)
Reagents: single siRNA against human genes, 0.8 pmol siRNA per well
Duration: 72 h
Measurement: 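Reporter luminescence and viable-cell signal on separate replicate plates, given as percent of non-targeting control and median/MAD z-scores, plus per-cell luciferase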
Reading the numbers: total luciferase, z-score: higher = more reporter protein produced
Call rule: 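Active when the median/MAD z-score for overall luciferase is greater than 3; a gene was taken forward for validation with new siRNAs if at least two of its three siRNAs passed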
Meaning of the calls: active = raised luciferase; inactive = no rise
Shown is a random part of about 59,000 reagents tested. In the full data, about 1,510 (2.6%) are marked active. 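Calls use total luciferase alone and ignore viability, so some active siRNAs may act by altering cell number.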 Reagents against one gene are numbered here. Not all columns of the deposit are shown.

total luciferase, z-score, by target gene and reagent
HS2ST1 (heparan sulfate 2-O-sulfotransferase 1): #1 2.04 inactive; #2 -0.443 inactive; #3 1.13 inactive
NOX1 (NADPH oxidase 1): #1 0.479 inactive; #2 0.809 inactive; #3 -0.223 inactive
PIERCE1 (piercer of microtubule wall 1): #1 0.214 inactive; #2 0.362 inactive; #3 0.047 inactive
POLR2C (RNA polymerase II subunit C): #1 -2.8 inactive; #2 -2.04 inactive; #3 -3.25 inactive
SLC17A4: #1 0.655 inactive; #2 0.964 inactive; #3 -0.0188 inactive
FOXM1 (forkhead box M1): #1 -0.757 inactive; #2 -0.771 inactive; #3 1.26 inactive
ALX1 (ALX homeobox 1): #1 0.768 inactive; #2 -1.58 inactive; #3 -1.39 inactive
TFAM (transcription factor A, mitochondrial): #1 -0.428 inactive; #2 1.14 inactive; #3 0.5 inactive
PRR27 (proline rich 27): #1 0.783 inactive; #2 -0.475 inactive; #3 -1.4 inactive
SYT8 (synaptotagmin 8): #1 1.27 inactive; #2 -0.948 inactive; #3 2.04 inactive
FRMD3 (FERM domain containing 3): #1 -0.188 inactive; #2 -0.567 inactive; #3 -2.27 inactive
SERP1 (stress associated endoplasmic reticulum protein 1): #1 0.913 inactive; #2 -0.915 inactive; #3 -0.26 inactive
BAZ1B (bromodomain adjacent to zinc finger domain 1B): #1 -0.682 inactive; #2 0.138 inactive; #3 1.95 inactive

Part of the list above, set out differently:
PIERCE1 (piercer of microtubule wall 1) #1 → total luciferase, z-score = 0.214; Outcome = inactive
PIERCE1 (piercer of microtubule wall 1) #2 → total luciferase, z-score = 0.362; Outcome = inactive
PIERCE1 (piercer of microtubule wall 1) #3 → total luciferase, z-score = 0.047; Outcome = inactive
POLR2C (RNA polymerase II subunit C) #1 → total luciferase, z-score = -2.8; Outcome = inactive
